Test system: SULT2A1
Test: Quantitative Western blot analysis of immunoreactive SULT2A1
Parameters: species or system human
Conditions: for Immunoreactive protein (%): percentage of wild type SULT2A1 protein band, corrected for transfection efficiency, average of three transfections
Experimental: Western blot analysis: Levels of immunoreactive SULT2A1 were determined for each recombinant allozyme by performing quantitative Western blot analysis. Rabbit polyclonal antibody directed against SULT2A1 amino acids 268-285, with an additional amino terminus cysteine (described in Wood et al., J. Steroid Biochem. Mol. Biol. 59:467-478 (1996)) at a dilution of 1:2000 was used in these studies. […] Electrophoresis was performed for 1 h at 150 volts, and proteins were transferred to nitrocellulose membranes. The membranes were blocked overnight at 4° C. with 5% dried milk in Tris buffered saline with Tween-20 (TBST). Subsequently, the membranes were incubated with primary antibody for 1 h, followed by three TBST washes. The secondary antibody, a 1:10,000 dilution of goat anti-rabbit horseradish peroxidase (BioRad), was applied for 1 h in 5% milk in TBST, followed by multiple washes. Bound antibody was detected with the ECL Western Blotting System (Amersham Pharmacia, Piscataway, N.J.). Multiple blots were assayed for each allozyme, and immunoreactive protein levels were expressed as a percentage of the intensity of the control wild type SULT2A1 protein band on the same gel. The AMBIS Radioanalytical Imaging System, Quant Probe v. 4.31 (AMBIS, San Diego, Calif. ) was used to analyze each blot.
Western blot analysis data were obtained by assaying cytosol for each allozyme from three independent transfections performed on different days to ensure that results were reproducible. The data listed in Table 5 are averages of those three transfections. It should be noted that none of the alterations in encoded amino acid for the variant allozymes studied were located within the sequence of the peptide used to generate the rabbit polyclonal antibody utilized to perform the Western blots.

B1: Ala63Pro: SULT2A1 allozyme having a proline at amino acid residue 63 in place of alanine (protein, UniProt Q06520 1-285, looked up, variant A63P)
Sulfotransferase 2A1: MSDDFLWFEGIAFPTMGFRSETLRKVRDEFVIRDEDVIILTYPKSGTNWLAEILCLMHSKGDPKWIQSVPIWERSPWVESEIGYTALSETESPRLFSSHLPIQLFPKSFFSSKAKVIYLMRNPRDVLVSGYFFWKNMKFIKKPKSWEEYFEWFCQGTVLYGSWFDHIHGWMPMREEKNFLLLSYEELKQDTGRTIEKICQFLGKTLEPEELNLILKNSSFQSMKENKMSNYSLLSVDYVVDKAQLLRKGVSGDWKNHFTVAQAEDFDKLFQEKMADLPRELFPWE
- level of immunoreactive protein (in words): decrease in immunoreactive protein
- Immunoreactive protein (%): 27 ± 9 %

B2: Lys227Glu: SULT2A1 allozyme having a glutamate at amino acid residue 227 in place of a lysine (protein, UniProt Q06520 1-285, looked up, variant K227E)
Sulfotransferase 2A1: MSDDFLWFEGIAFPTMGFRSETLRKVRDEFVIRDEDVIILTYPKSGTNWLAEILCLMHSKGDAKWIQSVPIWERSPWVESEIGYTALSETESPRLFSSHLPIQLFPKSFFSSKAKVIYLMRNPRDVLVSGYFFWKNMKFIKKPKSWEEYFEWFCQGTVLYGSWFDHIHGWMPMREEKNFLLLSYEELKQDTGRTIEKICQFLGKTLEPEELNLILKNSSFQSMKENEMSNYSLLSVDYVVDKAQLLRKGVSGDWKNHFTVAQAEDFDKLFQEKMADLPRELFPWE
- level of immunoreactive protein (in words): very low level of immunoreactive protein
- Immunoreactive protein (%): 2 ± 1 %

B3: WT: recombinant wild type (reference) human SULT2A1 polypeptide, SEQ ID NO:3, expressed in COS-1 cells (protein, listed as Homo Sapiens)
chain: MSDDFLWFEGIAFPTMGFRSETLRKVRDEFVIRDEDVIILTYPKSGTNWLAEILCLMHSKGDAKWIQSVPIWERSPWVESEIGYTALSESESPRLFSSHLPIQLFPKSFFSSKAKVIYLMRNPRDVLVSGYFFWKNMKFIKKPKSWEEYFEWFCQGTVLYGSWFDHIHGWMPMREEKNFLLLSYEELKQDTGRTIEKICQFLGKTLEPEELNLILKNSSFQSMKENKMSNYSLLSVDYVVDKAQLLRKGVSGDWKNHFTVAQAEDFDKLFQEKMADLPRELFPWE
- Immunoreactive protein (%): 100%

B4: Ala261Thr: SULT2A1 allozyme having a threonine at amino acid 261 in place of an alanine (protein)
chain: MSDDFLWFEGIAFPTMGFRSETLRKVRDEFVIRDEDVIILTYPKSGTNWLAEILCLMHSKGDAKWIQSVPIWERSPWVESEIGYTALSESESPRLFSSHLPIQLFPKSFFSSKAKVIYLMRNPRDVLVSGYFFWKNMKFIKKPKSWEEYFEWFCQGTVLYGSWFDHIHGWMPMREEKNFLLLSYEELKQDTGRTIEKICQFLGKTLEPEELNLILKNSSFQSMKENKMSNYSLLSVDYVVDKAQLLRKGVSGDWKNHFTVTQAEDFDKLFQEKMADLPRELFPWE
- Immunoreactive protein (%): 79 ± 7%

B5: 63Pro/261Thr: SULT2A1 polypeptide with a proline at position 63 and a threonine at position 261 (double variant) (protein, UniProt Q06520 1-285, looked up, variant A63P A261T)
Sulfotransferase 2A1: MSDDFLWFEGIAFPTMGFRSETLRKVRDEFVIRDEDVIILTYPKSGTNWLAEILCLMHSKGDPKWIQSVPIWERSPWVESEIGYTALSETESPRLFSSHLPIQLFPKSFFSSKAKVIYLMRNPRDVLVSGYFFWKNMKFIKKPKSWEEYFEWFCQGTVLYGSWFDHIHGWMPMREEKNFLLLSYEELKQDTGRTIEKICQFLGKTLEPEELNLILKNSSFQSMKENKMSNYSLLSVDYVVDKAQLLRKGVSGDWKNHFTVTQAEDFDKLFQEKMADLPRELFPWE
- Immunoreactive protein (%): 26 ± 14 %
